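A cell-based luciferase reporter for ATXN2 expression, read by light output at 24 h, with a viability multiplex. Compounds were tested as a dilution series from about 0.0037 to 57 µM. The number is the fitted half-maximal inhibitory concentration (AC50); a lower value means a more potent inhibitor. Calls come from curve class and activity score: actives score 40–100, while inconclusive compounds (weak, partial, poorly fitted or single-point curves) score 1–39.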

Values are in µM. All entries here are filed as inconclusive. Only part of the assay is shown, chiefly results filed as inconclusive. A potency from a partial, single-point or poor curve is only a rough figure. Activity scores are not listed here.

Compound	Potency (µM)	curve as filed
COc1cc2nc(N(C)C)nc(N)c2cc1OC	25.12	inhibitor, partial curve, poor fit
Cc1nc(-c2ccc(Cl)cc2)sc1C(=O)NN	17.78	inhibitor, partial curve, poor fit
CC(=O)Oc1c(Br)cc(N(C(C)=O)S(=O)(=O)c2ccccc2)c2ccccc12	17.78	inhibitor, partial curve, poor fit
CCOC(=O)c1c(-c2ccccc2)oc2ccc(OCC(=O)NN)cc12	28.18	inhibitor, single point
O=C(NNC(=O)c1cccc2ccccc12)c1ccccc1O	17.78	inhibitor, partial curve, poor fit
Cc1nc(-c2c(C(F)(F)F)noc2-c2ccc(O)cc2O)cs1	31.62	inhibitor, single point
FC(F)(F)c1ccc(N2CCN(c3cc(-c4ccccc4)nc4ncnn34)CC2)nc1	1.413	inhibitor, partial curve
NC(c1csc(NC(=O)c2cccc(OC(F)(F)F)c2)n1)c1ccccc1Cl (stereo not drawn)	25.12	inhibitor, partial curve, poor fit
CCNc1ccc(Br)cc(C(=O)/C=C/c2ccc(Cl)cc2Cl)c1=O	3.548	inhibitor, single point
S=C(Nc1cc(Cl)ccc1Oc1ccccc1)N1CCN(c2ccccn2)CC1	35.48	inhibitor, single point
COc1ccc(Br)cc1C(=O)Nc1ccccc1N1CCN(C(=O)c2ccccc2)CC1	2.512	inhibitor, partial curve, poor fit
Cc1nc2ccccc2n1C1CCN(CC(=O)Nc2ccccc2Br)CC1	2.512	inhibitor, partial curve
Cc1nc2cc(NC(=O)CSc3nc4c(C)cccc4cc3C#N)ccc2s1	7.943	inhibitor, single point
N#C/C(=C/c1ccc(Sc2nc3ccccc3[nH]2)o1)c1cccc(F)c1	2.818	inhibitor, partial curve
O=C(Nc1cccc(Br)c1)c1cccc(OC(=S)N2CCOCC2)c1	15.85	inhibitor, partial curve, poor fit
Cc1ccc(S(=O)(=O)c2cc3cc(Br)ccc3oc2=O)cc1	35.48	inhibitor, single point
Cn1c(CO)cnc1SCC(=O)c1ccc(Br)cc1	19.95	inhibitor, partial curve
COc1ccc(NC(=O)CSc2n[nH]c(-c3ccccn3)n2)cc1	28.18	inhibitor, partial curve, poor fit
CCc1cc[n+](C2=C([O-])c3ccccc3C(=O)/C2=N\S(=O)(=O)c2cccs2)cc1	14.13	inhibitor, partial curve, poor fit
Cc1ccc(C)c(N2CCN(C(=O)CCCCCn3c(=S)[nH]c4ccc(N5CCOCC5)cc4c3=O)CC2)c1	7.943	inhibitor, single point
COc1ccc(S(=O)(=O)Nc2ccc(F)cc2)cc1N(C)S(=O)(=O)c1ccc(Cl)cc1	17.78	inhibitor, partial curve, poor fit
OCCN(Cc1ccccc1)CC(O)COc1ccc(-c2ccccc2)cc1 (stereo not drawn)	39.81	inhibitor, single point
OCCNc1c2ccccc2nc2ccccc12	25.12	inhibitor, partial curve, poor fit
C(=N\Nc1nc2ccccc2[nH]1)/c1cccc2nccnc12	0.631	inhibitor, partial curve, poor fit
O=C(NC(=S)NCc1nc2ccccc2[nH]1)c1ccc(F)cc1	3.548	inhibitor, single point
COc1cc(/C=N/NC(=O)c2cncc(Br)c2)cc([N+](=O)[O-])c1O	3.162	inhibitor, single point
Cn1c(N)c(C(=O)Nc2ccc(-c3ccccc3)cc2)sc1=S	22.39	inhibitor, single point
COc1ccc(-c2csc(NC(=O)c3ccc(OCC(=O)N4CCOCC4)c(OC)c3)n2)cc1OC	31.62	inhibitor, single point
CCn1cc(CN2CCC(C(=O)Nc3cccc(-c4cccc(Cl)c4)c3)CC2)c(C)n1	14.13	inhibitor, partial curve, poor fit
Cc1cc(OCC(=O)Nc2ccc(Br)cc2)cc2c1C(=O)CC(C)(C)O2	2.818	inhibitor, partial curve
Cc1cccc(-n2c(/C=C/c3ccc([N+](=O)[O-])o3)nc3ccccc3c2=O)c1	3.548	inhibitor, full curve, poor fit
Cc1ccc(/C=C2/CNC/C(=C/c3ccc(C)cc3)C2=O)cc1	10	inhibitor, partial curve, poor fit
CC1=CC(C)(C)Nc2ccc(OC(=O)CN3C(=O)c4cccc5cccc(c45)C3=O)cc21	19.95	inhibitor, partial curve, poor fit
COc1cc(N)ccc1Nc1c2ccccc2nc2ccccc12	35.48	inhibitor, single point
CCCCCCc1cc2cc(S(=O)(=O)c3ccc(F)c(Cl)c3)c(=O)oc2cc1O	3.162	inhibitor, single point
CC[C@@H]1C(c2cccc(Cl)c2)=NN(c2ccc(Br)cc2)[C@H]1C(=O)N1CCOC1=O	31.62	inhibitor, single point
COCCNC(=O)c1cccc(Nc2nc(-c3ccccc3)c3cc(Cl)ccc3n2)c1	15.85	inhibitor, partial curve, poor fit
C=CCN=c1scc(-c2ccc3c(c2)NC(=O)CO3)n1/N=C(\C)c1ccccn1	1.122	inhibitor, partial curve, poor fit
Cc1nc2ccccc2n1/N=C/c1ccc([N+](=O)[O-])o1	17.78	inhibitor, partial curve, poor fit
CN(C)CCCN(C(=O)c1ccco1)c1nc2cc3c(cc2s1)OCO3	39.81	inhibitor, single point
N#C/C(=C(/O)c1ccc([N+](=O)[O-])s1)c1nc2ccccc2[nH]1	1.259	inhibitor, partial curve
CNCC(O)c1cc(OCc2ccccc2)c(OCc2ccccc2)cc1F (stereo not drawn)	17.78	inhibitor, partial curve, poor fit
COc1ccc(CC(N)c2csc(NC(=O)CCc3ccccc3)n2)cc1 (stereo not drawn)	28.18	inhibitor, partial curve, poor fit
COc1cccc(S(=O)(=O)NCc2ccc(C(=O)Nc3cccc(Cl)c3)cc2)c1	14.13	inhibitor, partial curve, poor fit
c1nc(CCO[C@H]2CCCCO2)cc2cc3c(cc12)OCO3	3.162	inhibitor, single point
Cc1ccc(C(=O)N/N=C/c2nc3ccccc3n2C)cc1	8.912	inhibitor, partial curve, poor fit
CN(C)CCOc1ccc(-c2c(-c3ccccc3)sc3ccccc23)cc1	22.39	inhibitor, partial curve, poor fit
O=c1cc(-c2ccncc2)oc2c1ccc1ccccc12	28.18	inhibitor, partial curve, poor fit
Cc1ccc(SC2=C(N(C)C)C(=O)c3ccccc3C2=O)cc1	25.12	inhibitor, partial curve, poor fit
CN(C)CCCN(C(=O)c1ccc2c(c1)CCCC2)c1nc2cc3c(cc2s1)OCO3	31.62	inhibitor, partial curve, poor fit
CCCNC(=O)c1ccc2c(=O)c(O)c(-c3cccc(Br)c3)[nH]c2c1	22.39	inhibitor, partial curve, poor fit

Once more, the final 3:

| Compound | Potency (µM) | curve as filed |
|---|---|---|
| `Cc1ccc(SC2=C(N(C)C)C(=O)c3ccccc3C2=O)cc1` | 25.12 | inhibitor, partial curve, poor fit |
| `CN(C)CCCN(C(=O)c1ccc2c(c1)CCCC2)c1nc2cc3c(cc2s1)OCO3` | 31.62 | inhibitor, partial curve, poor fit |
| `CCCNC(=O)c1ccc2c(=O)c(O)c(-c3cccc(Br)c3)[nH]c2c1` | 22.39 | inhibitor, partial curve, poor fit |

Source: PubChem BioAssay AID1745848 (NCATS, 2022).